Laboratory results: paper PMC11360180, “Enhancement of Antimicrobial Function by L/D-Lysine Substitution on a Novel Broad-Spectrum Antimicrobial Peptide, Phylloseptin-TO2: A Structure-Related Activity Research Study” (Pharmaceutics, 2024)

Key:
Gram-positive = assay: GM MIC and therapeutic index
Yeast = details: HC10 / GM MIC
Gram-negative = assay: GM MIC and therapeutic index

Compound: CC[C@H](C)[C@H](NC(=O)[C@H](C)NC(=O)[C@@H](CCCCN)NC(=O)[C@@H]1CCCN1C(=O)[C@@H](NC(=O)[C@H](CC(C)C)NC(=O)[C@H](CO)NC(=O)[C@H](CC(C)C)NC(=O)[C@@H](N)Cc1ccccc1)[C@@H](C)CC)C(=O)N[C@@H](CCCCN)C(=O)N[C@@H](C)C(=O)N[C@H](C(=O)N[C@@H](CO)C(=O)N[C@@H](C)C(=O)N[C@@H](CC(C)C)C(=O)N[C@@H](C)C(=O)N[C@@H](CCCCN)C(=O)N[C@@H](CCCCN)C(=O)N[C@@H](CC(C)C)C(N)=O)C(C)C [SRD7] (H-FLSLIP[dK]AIKAVSALAKKL-NH2)
- TI Value under HC10 (G+) (Gram-positive): 74.78
- TI Value under HC10 (Yeast) (Yeast): 2.34
- TI Value under HC10 (G−) (Gram-negative): 11.16

Compound: FLSLIPKAISAVSALAKKL-NH2 [Peptide 18K]
- TI Value under HC10 (G+) (Gram-positive): 7.35
- TI Value under HC10 (G−) (Gram-negative): 1.29

Compound: FLSLIPKAIKAVKALAKKL-NH2 [SR2]
- TI Value under HC10 (G+) (Gram-positive): 3.27
- TI Value under HC10 (Yeast) (Yeast): 0.2
- TI Value under HC10 (G−) (Gram-negative): 1.92

Compound: FLSLIPKAISAVSALAKHL-NH2 [Peptide 7K]
- TI Value under HC10 (G+) (Gram-positive): 5.49
- TI Value under HC10 (G−) (Gram-negative): 0.69

Compound: CC[C@H](C)[C@H](NC(=O)[C@H](C)NC(=O)[C@@H](CCCCN)NC(=O)[C@@H]1CCCN1C(=O)[C@@H](NC(=O)[C@H](CC(C)C)NC(=O)[C@H](CO)NC(=O)[C@H](CC(C)C)NC(=O)[C@@H](N)Cc1ccccc1)[C@@H](C)CC)C(=O)N[C@@H](CCCCN)C(=O)N[C@@H](C)C(=O)N[C@H](C(=O)N[C@@H](CCCCN)C(=O)N[C@@H](C)C(=O)N[C@@H](CC(C)C)C(=O)N[C@@H](C)C(=O)N[C@@H](CCCCN)C(=O)N[C@H](CCCCN)C(=O)N[C@@H](CC(C)C)C(N)=O)C(C)C [SR2D10] (H-FLSLIP[dK]AIKAVKALAK[dK]L-NH2)
- TI Value under HC10 (G+) (Gram-positive): 75.24
- TI Value under HC10 (Yeast) (Yeast): 1.18
- TI Value under HC10 (G−) (Gram-negative): 9.41

Compound: FLSLIPKAIKAVSALAKKL-NH2 [SR]
- TI Value under HC10 (G+) (Gram-positive): 6.3
- TI Value under HC10 (G−) (Gram-negative): 3.15

Compound: FLSLIPHAISAVSALAKHL-NH2 [PSTO2, phylloseptin-TO2]
- TI Value under HC10 (G+) (Gram-positive): 5.45
- TI Value under HC10 (G−) (Gram-negative): 0.17

Where a SMILES comes first, the peptide text is derived from it. Where no end group is shown, it is not given here. [ ]: non-standard residue; d: D form.
